Measured values taken from patent US20220074941A1, “HSP90 COMBINATION THERAPY” (Sloan-Kettering Institute for Cancer Research, priority 2011, published 2022).

B1: TBC1D15 (protein, UniProt Q8TC07 2-691, looked up)
TBC1 domain family member 15: AAAGVVSGKIIYEQEGVYIHSSCGKTNDQDGLISGILRVLEKDAEVIVDWRPLDDALDSSSILYARKDSSSVVEWTQAPKERGHRGSEHLNSYEAEWDMVNTVSFKRKPHTNGDAPSHRNGKSKWSFLFSLTDLKSIKQNKEGMGWSYLVFCLKDDVVLPALHFHQGDSKLLIESLEKYVVLCESPQDKRTLLVNCQNKSLSQSFENLLDEPAYGLIQAGLLDRRKLLWAIHHWKKIKKDPYTATMIGFSKVTNYIFDSLRGSDPSTHQRPPSEMADFLSDAIPGLKINQQEEPGFEVITRIDLGERPVVQRREPVSLEEWTKNIDSEGRILNVDNMKQMIFRGGLSHALRKQAWKFLLGYFPWDSTKEERTQLQKQKTDEYFRMKLQWKSISQEQEKRNSRLRDYRSLIEKDVNRTDRTNKFYEGQDNPGLILLHDILMTYCMYDFDLGYVQGMSDLLSPLLYVMENEVDAFWCFASYMDQMHQNFEEQMQGMKTQLIQLSTLLRLLDSGFCSYLESQDSGYLYFCFRWLLIRFKREFSFLDILRLWEVMWTELPCTNFHLLLCCAILESEKQQIMEKHYGFNEILKHINELSMKIDVEDILCKAEAISLQMVKCKELPQAVCEILGLQGSEVTTPDSDVGEDENVVMTPCPTSAFQSNALPTLSASGARNDSPTQIPVSSDVCRLTPA
B2: RAB11B (protein, UniProt Q15907 2-215, looked up)
Ras-related protein Rab-11B: GTRDDEYDYLFKVVLIGDSGVGKSNLLSRFTRNEFNLESKSTIGVEFATRSIQVDGKTIKAQIWDTAGQERYRAITSAYYRGAVGALLVYDIAKHLTYENVERWLKELRDHADSNIVIMLVGNKSDLRHLRAVPTDEARAFAEKNNLSFIETSALDSTNVEEAFKNILTEIYRIVSQKQIADRAAHDESPGNNVVDISVPPTTDGQKPNKLQCC
B3: RAB3GAP1 (protein, UniProt Q15042 1-981, looked up)
Rab3 GTPase-activating …: MAADSEPESEVFEITDFTTASEWERFISKVEEVLNDWKLIGNSLGKPLEKGIFTSGTWEEKSDEISFADFKFSVTHHYLVQESTDKEGKDELLEDVVPQSMQDLLGMNNDFPPRAHCLVRWYGLREFVVIAPAAHSDAVLSESKCNLLLSSVSIALGNTGCQVPLFVQIHHKWRRMYVGECQGPGVRTDFEMVHLRKVPNQYTHLSGLLDIFKSKIGCPLTPLPPVSIAIRFTYVLQDWQQYFWPQQPPDIDALVGGEVGGLEFGKLPFGACEDPISELHLATTWPHLTEGIIVDNDVYSDLDPIQAPHWSVRVRKAENPQCLLGDFVTEFFKICRRKESTDEILGRSAFEEEGKETADITHALSKLTEPASVPIHKLSVSNMVHTAKKKIRKHRGVEESPLNNDVLNTILLFLFPDAVSEKPLDGTTSTDNNNPPSESEDYNLYNQFKSAPSDSLTYKLALCLCMINFYHGGLKGVAHLWQEFVLEMRFRWENNFLIPGLASGPPDLRCCLLHQKLQMLNCCIERKKARDEGKKTSASDVTNIYPGDAGKAGDQLVPDNLKETDKEKGEVGKSWDSWSDSEEEFFECLSDTEELKGNGQESGKKGGPKEMANLRPEGRLYQHGKLTLLHNGEPLYIPVTQEPAPMTEDLLEEQSEVLAKLGTSAEGAHLRARMQSACLLSDMESFKAANPGCSLEDFVRWYSPRDYIEEEVIDEKGNVVLKGELSARMKIPSNMWVEAWETAKPIPARRQRRLFDDTREAEKVLHYLAIQKPADLARHLLPCVIHAAVLKVKEEESLENISSVKKIIKQIISHSSKVLHFPNPEDKKLEEIIHQITNVEALIARARSLKAKFGTEKCEQEEEKEDLERFVSCLLEQPEVLVTGAGRGHAGRIIHKLFVNAQRAAAMTPPEEELKRMGSPEERRQNSVSDFPPPAGREFILRTTVPRPAPYSKALPQRMYSVLTKEDFRLAGAFSSDTSFF
B4: GAPVD1 (protein, UniProt Q14C86 1-1478, looked up)
GTPase-activating protein and …: MVKLDIHTLAHHLKQERLYVNSEKQLIQRLNADVLKTAEKLYRTAWIAKQQRINLDRLIITSAEASPAECCQHAKILEDTQFVDGYKQLGFQETAYGEFLSRLRENPRLIASSLVAGEKLNQENTQSVIYTVFTSLYGNCIMQEDESYLLQVLRYLIEFELKESDNPRRLLRRGTCAFSILFKLFSEGLFSAKLFLTATLHEPIMQLLVEDEDHLETDPNKLIERFSPSQQEKLFGEKGSDRFRQKVQEMVESNEAKLVALVNKFIGYLKQNTYCFPHSLRWIVSQMYKTLSCVDRLEVGEVRAMCTDLLLACFICPAVVNPEQYGIISDAPINEVARFNLMQVGRLLQQLAMTGSEEGDPRTKSSLGKFDKSCVAAFLDVVIGGRAVETPPLSSVNLLEGLSRTVVYITYSQLITLVNFMKSVMSGDQLREDRMALDNLLANLPPAKPGKSSSLEMTPYNTPQLSPATTPANKKNRLPIATRSRSRTNMLMDLHMDHEGSSQETIQEVQPEEVLVISLGTGPQLTPGMMSENEVLNMQLSDGGQGDVPVDENKLHGKPDKTLRFSLCSDNLEGISEGPSNRSNSVSSLDLEGESVSELGAGPSGSNGVEALQLLEHEQATTQDNLDDKLRKFEIRDMMGLTDDRDISETVSETWSTDVLGSDFDPNIDEDRLQEIAGAAAENMLGSLLCLPGSGSVLLDPCTGSTISETTSEAWSVEVLPSDSEAPDLKQEERLQELESCSGLGSTSDDTDVREVSSRPSTPGLSVVSGISATSEDIPNKIEDLRSECSSDFGGKDSVTSPDMDEITHGAHQLTSPPSQSESLLAMFDPLSSHEGASAVVRPKVHYARPSHPPPDPPILEGAVGGNEARLPNFGSHVLTPAEMEAFKQRHSYPERLVRSRSSDIVSSVRRPMSDPSWNRRPGNEERELPPAAAIGATSLVAAPHSSSSSPSKDSSRGETEERKDSDDEKSDRNRPWWRKRFVSAMPKAPIPFRKKEKQEKDKDDLGPDRFSTLTDDPSPRLSAQAQVAEDILDKYRNAIKRTSPSDGAMANYESTGDNHDRDLSSKLLYHSDKEVMGDGESAHDSPRDEALQNISADDLPDSASQAAHPQDSAFSYRDAKKKLRLALCSADSVAFPVLTHSTRNGLPDHTDPEDNEIVCFLKVQIAEAINLQDKNLMAQLQETMRCVCRFDNRTCRKLLASIAEDYRKRAPYIAYLTRCRQGLQTTQAHLERLLQRVLRDKEVANRYFTTVCVRLLLESKEKKIREFIQDFQKLTAADDKTAQVEDFLQFLYGAMAQDVIWQNASEEQLQDAQLAIERSVMNRIFKLAFYPNQDGDILRDQVLHEHIQRLSKVVTANHRALQIPEVYLREAPWPSAQSEIRTISAYKTPRDKVQCILRMCSTIMNLLSLANEDSVPGADDFVPVLVFVLIKANPPCLLSTVQYISSFYASCLSGEESYWWMQFTAAVEFIKTIDDRK

Tests used:
[1] = test system: Hsp90 complexes in K562 cell extract; assay: Nano-LC-MS/MS of PU-beads pull-downs; format: binding; conditions: protein identified in PU-beads pull-down of K562 extract, QSTAR-Elite QTof MS
Summary of the method: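 Lysates pre-cleared overnight at 4 °C with control beads, then pulled down with PU-beads or control beads; eluted proteins (2% SDS boil) gel-separated and analysed by nano LC-MS/MS on a QTof. Mascot identification (p<0.05), spectral counts and sequence coverage evaluated in Scaffold.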

[2] = test system: Hsp90 complexes in Mia-PaCa-2 cell extract; assay: Nano-LC-MS/MS of PU-beads pull-downs; format: binding, human; conditions: protein identified in PU-beads pull-down of Mia-Paca 2 extract; QSTAR-Elite QTof MS
Summary of the method: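 Lysates pre-cleared overnight at 4 °C with control beads underwent PU-bead pull-down; bound proteins were SDS-eluted, gel-separated, digested and analyzed by nano-LC-MS/MS on a QTof. Identifications used significance p<0.05, 0.4 Da tolerances and one missed cleavage; unique peptide (spectral) counts and sequence coverage were reported.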

| Molecule | Number of Assigned Spectra, K562 Prep 1 [1] | Number of Assigned Spectra, K562 Prep 2 [1] | Number of Assigned Spectra, Mia-Paca 2 [2] |
| --- | --- | --- | --- |
| B1 | 6 | 4 | 4 |
| B2 | 6 | 1 | 0 |
| B3 | 9 | 6 | 3 |
| B4 | 4 | 6 | 6 |
